# Assay results published in PubChem BioAssay AID246 (DTP/NCI, 2004).
# The list shows only some results of the screen, not a fair sample: it gathers some chemical classes. Not every dose and run of a compound is shown. T/C is the treated group as % of the vehicle group. For survival time, this PubChem deposit counts one and a half times the control or more as active, and values a quarter to a half above the control carry no call in these data; other NCI protocols may use other cut-offs. Some entries show no survivor count and are marked so; the dose need not have been tolerated. Schedule codes are those of the source, taken here to give the interval after Q, in days (D) or hours (H), and the number of doses after X. Some doses were run more than once; the values are given in rising order. Some schedule codes hold Z or #, which are not explained here.
# System: BDF1 mice, P1081 chloroleukemia ip, survival T/C
# Assay: NCI In Vivo Anticancer Drug Screen. Data for tumor model P1081 Chloroleukemia (intraperitoneal) in B6D2F1 (BDF1) mice
# Settings: T/C endpoint: mean survival time, higher T/C = longer survival
# Experimental: The antitumor activity of compounds was measured in mice bearing transplantable tumors. Survival or tumor size were measured and the results are expressed as the measurement made in the treated group (T) divided by the measurement made in the vehicle treated control group (C). The tumor model used in this assay is P1081 Chloroleukemia (intraperitoneal) in B6D2F1 (BDF1) mice
# [1] = dose: 1.25 mg/kg/injection, schedule: Q01DX010 (ip), vehicle: saline
# [2] = dose: 2.5 mg/kg/injection, schedule: Q01DX010 (ip), vehicle: saline
# [3] = dose: 5.0 mg/kg/injection, schedule: Q01DX010 (ip), vehicle: saline
# [4] = dose: 5.0 mg/kg/injection, schedule: Q01DX Z (ip), vehicle: carboxymethylcellulose (CMC)
# [5] = dose: 10.0 mg/kg/injection, schedule: Q01DX Z (ip), vehicle: carboxymethylcellulose (CMC)
# [6] = dose: 0.63 mg/kg/injection, schedule: Q01DX010 (ip), vehicle: saline
# [7] = dose: 0.5 mg/kg/injection, schedule: Q01DX010 (ip), vehicle: saline
# [8] = dose: 1.0 mg/kg/injection, schedule: Q01DX010 (ip), vehicle: saline
# [9] = dose: 2.0 mg/kg/injection, schedule: Q01DX010 (ip), vehicle: saline
structure (smiles),measurement,setting,value
ClCCN(CCCl)Cc1nc2ccccc2[nH]1,T/C,[1],110 [survivor count not shown] and 115 % of control [survivor count not shown]
same,T/C,[2],125 [survivor count not shown] and 155 % of control [survivor count not shown]
same,T/C,[3],140 [survivor count not shown] and 160 % of control [survivor count not shown]
same,T/C,[4],112 % of control [survivor count not shown]
same,T/C,"dose: 10.0 mg/kg/injection, schedule: Q01DX010 (ip), vehicle: saline",90 [survivor count not shown] and 130 % of control [survivor count not shown]
same,T/C,[5],160 % of control [survivor count not shown]
same,T/C,"dose: 20.0 mg/kg/injection, schedule: Q01DX Z (ip), vehicle: carboxymethylcellulose (CMC)",177 % of control [survivor count not shown]
ClCCNCCCl,T/C,"dose: 9.4 mg/kg/injection, schedule: Q01DX010 (ip), vehicle: saline",100 % of control [survivor count not shown]
same,T/C,"dose: 12.5 mg/kg/injection, schedule: Q01DX Z (ip), vehicle: carboxymethylcellulose (CMC)",86 % of control [survivor count not shown]
same,T/C,"dose: 18.8 mg/kg/injection, schedule: Q01DX010 (ip), vehicle: saline",120 [survivor count not shown] and 131 % of control [survivor count not shown]
same,T/C,"dose: 25.0 mg/kg/injection, schedule: Q01DX Z (ip), vehicle: carboxymethylcellulose (CMC)",93 [survivor count not shown] and 98 % of control [survivor count not shown]
same,T/C,"dose: 37.5 mg/kg/injection, schedule: Q01DX010 (ip), vehicle: saline",118 [survivor count not shown] and 160 % of control [survivor count not shown]
same,T/C,"dose: 50.0 mg/kg/injection, schedule: Q01DX Z (ip), vehicle: carboxymethylcellulose (CMC)",86 % of control [survivor count not shown]
NC(Cc1cccc(N(CCCl)CCCl)c1)C(=O)O (centres undefined),T/C,"dose: 0.02 mg/kg/injection, schedule: Q01DX Z (ip), vehicle: carboxymethylcellulose (CMC)",104 % of control [survivor count not shown]
same,T/C,"dose: 0.04 mg/kg/injection, schedule: Q01DX Z (ip), vehicle: carboxymethylcellulose (CMC)",106 % of control [survivor count not shown]
same,T/C,"dose: 0.08 mg/kg/injection, schedule: Q01DX Z (ip), vehicle: carboxymethylcellulose (CMC)",103 [survivor count not shown] and 145 % of control [survivor count not shown]
same,T/C,"dose: 0.16 mg/kg/injection, schedule: Q01DX Z (ip), vehicle: carboxymethylcellulose (CMC)",111 [survivor count not shown] and 159 % of control [survivor count not shown]
same,T/C,"dose: 0.31 mg/kg/injection, schedule: Q01DX010 (ip), vehicle: saline",118 % of control [survivor count not shown]
same,T/C,"dose: 0.32 mg/kg/injection, schedule: Q01DX Z (ip), vehicle: carboxymethylcellulose (CMC)",178 % of control [survivor count not shown]
same,T/C,[6],120 [survivor count not shown] and 231 % of control [survivor count not shown]
same,T/C,"dose: 0.63 mg/kg/injection, schedule: Q01DX Z (ip), vehicle: carboxymethylcellulose (CMC)",149 % of control [survivor count not shown]
same,T/C,[1],105 [survivor count not shown] and 145 % of control [survivor count not shown]
same,T/C,"dose: 1.25 mg/kg/injection, schedule: Q01DX Z (ip), vehicle: carboxymethylcellulose (CMC)",184 % of control [survivor count not shown]
same,T/C,"dose: 2.5 mg/kg/injection, schedule: Q01DX Z (ip), vehicle: carboxymethylcellulose (CMC)",240 % of control [survivor count not shown]
same,T/C,[4],89 % of control [survivor count not shown]
same,T/C,[5],124 % of control [survivor count not shown]
O=C(O)CN(CCCl)CCCl,T/C,"dose: 0.25 mg/kg/injection, schedule: Q01DX Z (ip), vehicle: saline",114 % of control [survivor count not shown]
same,T/C,"dose: 0.5 mg/kg/injection, schedule: Q01DX Z (ip), vehicle: saline",104 [survivor count not shown] and 141 % of control [survivor count not shown]
same,T/C,[6],95 [survivor count not shown] and 120 % of control [survivor count not shown]
same,T/C,"dose: 1.0 mg/kg/injection, schedule: Q01DX Z (ip), vehicle: saline",131 [survivor count not shown] and 148 % of control [survivor count not shown]
same,T/C,[1],118 [survivor count not shown] and 145 % of control [survivor count not shown]
same,T/C,"dose: 2.0 mg/kg/injection, schedule: Q01DX Z (ip), vehicle: saline",155 % of control [survivor count not shown]
same,T/C,[2],209 [survivor count not shown] and 300 % of control [survivor count not shown]
same,T/C,"dose: 4.0 mg/kg/injection, schedule: Q01DX Z (ip), vehicle: saline",131 % of control [survivor count not shown]
same,T/C,[3],118 % of control [survivor count not shown]
NC1CCCCC1.NP(=O)(O)N(CCCl)CCCl,T/C,"dose: 15.6 mg/kg/injection, schedule: Q01DX010 (ip), vehicle: saline",300 % of control [survivor count not shown]
same,T/C,"dose: 31.3 mg/kg/injection, schedule: Q01DX010 (ip), vehicle: saline",195 % of control [survivor count not shown]
same,T/C,"dose: 62.5 mg/kg/injection, schedule: Q01DX010 (ip), vehicle: saline",115 % of control [survivor count not shown]
NC(Cc1ccccc1N(CCCl)CCCl)C(=O)O (centres undefined),T/C,"dose: 0.25 mg/kg/injection, schedule: Q01DX010 (ip), vehicle: saline",260 % of control [survivor count not shown]
same,T/C,"dose: 0.25 mg/kg/injection, schedule: Q01DX Z (ip), vehicle: carboxymethylcellulose (CMC)",93 % of control [survivor count not shown]
same,T/C,[7],300 % of control [survivor count not shown]
same,T/C,"dose: 0.5 mg/kg/injection, schedule: Q01DX Z (ip), vehicle: carboxymethylcellulose (CMC)",106 % of control [survivor count not shown]
same,T/C,[8],300 % of control [survivor count not shown]
same,T/C,[9],135 % of control [survivor count not shown]
same,T/C,"dose: 2.0 mg/kg/injection, schedule: Q01DX Z (ip), vehicle: carboxymethylcellulose (CMC)",91 % of control [survivor count not shown]
CC(C(=O)O)N(CCCl)CCCl (centres undefined),T/C,[7],110 % of control [survivor count not shown]
same,T/C,[8],109 [survivor count not shown] and 175 % of control [survivor count not shown]
same,T/C,[9],127 [survivor count not shown] and 210 % of control [survivor count not shown]
same,T/C,"dose: 4.0 mg/kg/injection, schedule: Q01DX010 (ip), vehicle: saline",210 [survivor count not shown] and 300 % of control [survivor count not shown]
